Measured values as given in the supplement of paper PMC8728848.
The other results are listed elsewhere or left out.

Columns and labels:
Experiment in all cases: glycan array binding signal (z-score within array); higher = stronger binding
Conditions in all cases: glycan notation: IUPAC condensed, linker removed
[1] = biological target: Neu5Ac(a2-6)Gal(b1-4)GlcNAc(b1-2)Man(a1-3)[Man(a1-6)]Man(b1-4)GlcNAc(b1-4)GlcNAc
Summary of the method: (§1)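 The Consortium for Functional Glycomics database supplied 3228 glycan arrays, of which those lacking an available protein sequence were dropped. The binding signal, a within-array Z-score, was averaged across arrays of the same protein sequence and across linkers. Negative scores can be read as non-binding.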

[2] = biological target: Neu5Ac(a2-6)Gal(b1-4)GlcNAc(b1-2)Man(a1-3)[Neu5Ac(a2-3)Gal(b1-4)GlcNAc(b1-2)Man(a1-6)]Man(b1-4)GlcNAc(b1-4)GlcNAc
Summary of the method: as §1

[3] = biological target: Neu5Ac(a2-6)Gal(b1-4)GlcNAc(b1-2)Man(a1-3)[Neu5Ac(a2-6)Gal(b1-4)GlcNAc(b1-2)Man(a1-6)]Man(b1-4)GlcNAc(b1-4)GlcNAc
Summary of the method: as §1

[4] = biological target: Neu5Ac(a2-6)Gal(b1-4)GlcNAc(b1-2)Man(a1-3)[Neu5Ac(a2-6)Gal(b1-4)GlcNAc(b1-2)Man(a1-6)]Man(b1-4)GlcNAc(b1-4)[Fuc(a1-6)]GlcNAc
Summary of the method: as §1

[5] = biological target: Neu5Ac(a2-6)Gal(b1-4)GlcNAc(b1-2)Man(a1-6)Man(b1-4)GlcNAc(b1-4)GlcNAc
Summary of the method: as §1

[6] = biological target: Neu5Ac(a2-6)Gal(b1-4)GlcNAc(b1-2)Man(a1-6)[Gal(b1-4)GlcNAc(b1-2)Man(a1-3)]Man(b1-4)GlcNAc(b1-4)GlcNAc
Summary of the method: as §1

[7] = biological target: Neu5Ac(a2-6)Gal(b1-4)GlcNAc(b1-2)Man(a1-6)[GlcNAc(b1-2)Man(a1-3)]Man(b1-4)GlcNAc(b1-4)GlcNAc
Summary of the method: as §1

[8] = biological target: Neu5Ac(a2-6)Gal(b1-4)GlcNAc(b1-2)Man(a1-6)[Man(a1-3)]Man(b1-4)GlcNAc(b1-4)GlcNAc
Summary of the method: as §1

[9] = biological target: Neu5Ac(a2-6)Gal(b1-4)GlcNAc(b1-2)[Neu5Ac(a2-6)Gal(b1-4)GlcNAc(b1-4)]Man(a1-3)[GlcNAc(b1-4)][Neu5Ac(a2-6)Gal(b1-4)GlcNAc(b1-2)[Neu5Ac(a2-6)Gal(b1-4)GlcNAc(b1-6)]Man(a1-6)]Man(b1-4)GlcNAc(b1-4)GlcNAc
Summary of the method: as §1

[10] = biological target: Neu5Ac(a2-6)Gal(b1-4)GlcNAc(b1-2)[Neu5Ac(a2-6)Gal(b1-4)GlcNAc(b1-4)]Man(a1-3)[GlcNAc(b1-4)][Neu5Ac(a2-6)Gal(b1-4)GlcNAc(b1-4)Man(a1-6)]Man(b1-4)GlcNAc(b1-4)GlcNAc
Summary of the method: as §1

[11] = biological target: Neu5Ac(a2-6)Gal(b1-4)GlcNAc(b1-2)[Neu5Ac(a2-6)Gal(b1-4)GlcNAc(b1-6)]Man(a1-6)[Neu5Ac(a2-6)Gal(b1-4)GlcNAc(b1-2)Man(a1-3)][GlcNAc(b1-4)]Man(b1-4)GlcNAc(b1-4)GlcNAc
Summary of the method: as §1

[12] = biological target: Neu5Ac(a2-6)Gal(b1-4)GlcNAc(b1-3)Gal(b1-3)GlcNAc
Summary of the method: as §1

[13] = biological target: Neu5Ac(a2-6)Gal(b1-4)GlcNAc(b1-3)Gal(b1-4)GlcNAc
Summary of the method: as §1

[14] = biological target: Neu5Ac(a2-6)Gal(b1-4)GlcNAc(b1-3)Gal(b1-4)GlcNAc(b1-2)Man(a1-3)[Neu5Ac(a2-6)Gal(b1-4)GlcNAc(b1-3)Gal(b1-4)GlcNAc(b1-2)Man(a1-6)]GalNAc
Summary of the method: as §1

[15] = biological target: Neu5Ac(a2-6)Gal(b1-4)GlcNAc(b1-3)Gal(b1-4)GlcNAc(b1-3)Gal(b1-4)GlcNAc
Summary of the method: as §1

[16] = biological target: Neu5Ac(a2-6)Gal(b1-4)GlcNAc(b1-3)Gal(b1-4)GlcNAc(b1-3)Gal(b1-4)GlcNAc(b1-2)Man(a1-3)[Neu5Ac(a2-6)Gal(b1-4)GlcNAc(b1-3)Gal(b1-4)GlcNAc(b1-3)Gal(b1-4)GlcNAc(b1-2)Man(a1-6)]GalNAc
Summary of the method: as §1

[17] = biological target: Neu5Ac(a2-6)Gal(b1-4)GlcNAc(b1-3)Gal(b1-4)GlcNAc(b1-3)GalNAc
Summary of the method: as §1

[18] = biological target: Neu5Ac(a2-6)Gal(b1-4)GlcNAc(b1-3)Gal(b1-4)GlcNAc(b1-3)[Neu5Ac(a2-6)Gal(b1-4)GlcNAc(b1-3)Gal(b1-4)GlcNAc(b1-6)]GalNAc
Summary of the method: as §1

[19] = biological target: Neu5Ac(a2-6)Gal(b1-4)GlcNAc(b1-3)Gal(b1-4)GlcNAc(b1-6)[Gal(b1-3)]GalNAc
Summary of the method: as §1

[20] = biological target: Neu5Ac(a2-6)Gal(b1-4)GlcNAc(b1-3)Gal(b1-4)[Fuc(a1-3)]GlcNAc(b1-3)Gal(b1-4)[Fuc(a1-3)]GlcNAc
Summary of the method: as §1

[21] = biological target: Neu5Ac(a2-6)Gal(b1-4)GlcNAc(b1-3)GalNAc
Summary of the method: as §1

[22] = biological target: Neu5Ac(a2-6)Gal(b1-4)GlcNAc(b1-3)[Neu5Ac(a2-6)Gal(b1-4)GlcNAc(b1-6)]GalNAc
Summary of the method: as §1

[23] = biological target: Neu5Ac(a2-6)Gal(b1-4)GlcNAc(b1-6)GalNAc
Summary of the method: as §1

[24] = biological target: Neu5Ac(a2-6)Gal(b1-4)GlcNAc(b1-6)[Gal(b1-3)GlcNAc(b1-3)]Gal(b1-4)Glc
Summary of the method: as §1

[25] = biological target: Neu5Ac(a2-6)Gal(b1-4)GlcNAc(b1-6)[Gal(b1-3)]GalNAc
Summary of the method: as §1

[26] = biological target: Neu5Ac(a2-6)Gal(b1-4)GlcNAc6S
Summary of the method: as §1

Neu5Ac(a2-6)GalNAc = biological target: Neu5Ac(a2-6)GalNAc
Summary of the method: as §1

[27] = biological target: Neu5Ac(a2-6)GalNAc(b1-4)GlcNAc
Summary of the method: as §1

[28] = biological target: Neu5Ac(a2-6)GalNAc(b1-4)GlcNAc6S
Summary of the method: as §1

[29] = biological target: Neu5Ac(a2-6)GlcNAc(b1-4)GlcNAc
Summary of the method: as §1

[30] = biological target: Neu5Ac(a2-6)GlcNAc(b1-4)GlcNAc(b1-4)GlcNAc
Summary of the method: as §1

B1: Aap lectin (Staphylococcus epidermidis) (protein)
chain: VNLNYSSPFMSLLSMPADSSSNNTKNTIDIPPTTVKGRDNYDFYGRVDIESNPTDLNATNLTRYNYGQPPGTTTAGAVQFKNQVSFDKDFDFNIRVANNRQSNTTGADGWGFMFSKKDGDDFLKNGGILREKGTPSAAGFRIDTGYYNNDPLDKIQKQAGQGYRGYGTFVKNDSQGNTSKVGSGTPSTDFLNYADNTTNDLDGKFHGQKLNNVNLKYNASNQTFTATYAGKTWTATLSELGLSPTDSYNFLVTSS
With B1 as the binder, how does the “glycan array binding signal (z-score)” value [1] read?
The value was -0.436.

What about the “glycan array binding signal (z-score)” value [2] of the same binder?
The value was 1.27.

And the “glycan array binding signal (z-score)” value [3]?
Its value is 0.597.

What about the “glycan array binding signal (z-score)” value [4] of the same binder?
Its value is 1.17.

And the “glycan array binding signal (z-score)” value [5]?
The value was -0.806.

What about the “glycan array binding signal (z-score)” value [6] of the same binder?
Its value is -0.882.

And the “glycan array binding signal (z-score)” value [7]?
The value was -0.898.

What about the “glycan array binding signal (z-score)” value [8] of the same binder?
The value was -0.456.

And the “glycan array binding signal (z-score)” value [9]?
The value was 0.098.

And the “glycan array binding signal (z-score)” value [10]?
Its value is -0.886.

And the “glycan array binding signal (z-score)” value [11]?
Its value is -0.834.

And the “glycan array binding signal (z-score)” value [12]?
The value was -0.907.

What about the “glycan array binding signal (z-score)” value [13] of the same binder?
The value was -0.424.

And the “glycan array binding signal (z-score)” value [14]?
The value was -0.905.

And the “glycan array binding signal (z-score)” value [15]?
Its value is -0.888.

And the “glycan array binding signal (z-score)” value [16]?
The value was -0.161.

And the “glycan array binding signal (z-score)” value [17]?
The value was -0.917.

What about the “glycan array binding signal (z-score)” value [18] of the same binder?
Its value is 2.93.

And the “glycan array binding signal (z-score)” value [19]?
The value was 1.51.

What about the “glycan array binding signal (z-score)” value [20] of the same binder?
Its value is -0.333.

What about the “glycan array binding signal (z-score)” value [21] of the same binder?
Its value is 1.75.

And the “glycan array binding signal (z-score)” value [22]?
The value was -0.528.

What about the “glycan array binding signal (z-score)” value [23] of the same binder?
The value was 2.29.

And the “glycan array binding signal (z-score)” value [24]?
Its value is 1.01.

What about the “glycan array binding signal (z-score)” value [25] of the same binder?
Its value is -0.066.

And the “glycan array binding signal (z-score)” value [26]?
Its value is -0.883.

And the “glycan array binding signal (z-score)” value (Neu5Ac(a2-6)GalNAc)?
The value was -0.816.

What about the “glycan array binding signal (z-score)” value [27] of the same binder?
The value was -0.893.

What about the “glycan array binding signal (z-score)” value [28] of the same binder?
Its value is -1.16.

What about the “glycan array binding signal (z-score)” value [29] of the same binder?
Its value is -0.546.

What about the “glycan array binding signal (z-score)” value [30] of the same binder?
The value was -0.693.
